We go through 42 sequences from paper PMC7819943, “Rice protein-binding microarrays: a tool to detect cis-acting elements near promoter regions in rice”.

Some of the results follow.

In the test the target is T1, OsSMF1 (Oryza sativa, UniProt Q6ZLB0 1-436).
T1 sequence: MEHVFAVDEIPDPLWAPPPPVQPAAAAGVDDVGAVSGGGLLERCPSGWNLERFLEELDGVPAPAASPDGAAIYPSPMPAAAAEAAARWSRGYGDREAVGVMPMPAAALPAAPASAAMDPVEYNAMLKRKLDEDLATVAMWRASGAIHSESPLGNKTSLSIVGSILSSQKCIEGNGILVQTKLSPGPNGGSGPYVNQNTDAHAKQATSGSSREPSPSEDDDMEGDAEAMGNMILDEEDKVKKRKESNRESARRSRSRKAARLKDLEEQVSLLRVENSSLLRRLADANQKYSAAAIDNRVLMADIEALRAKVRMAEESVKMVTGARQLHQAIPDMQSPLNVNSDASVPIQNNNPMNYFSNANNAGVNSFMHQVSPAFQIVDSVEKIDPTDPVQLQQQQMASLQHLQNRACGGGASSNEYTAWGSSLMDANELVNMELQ
Description: protein-binding microarray (RPBM); PBS, 2% BSA, 51.3 ng/ul salmon testes DNA, 50 uM zinc acetate, 200 nM TF, 25 C, 1 h; high values mean tight binding. Conditions: protein: recombinant; tags: N-terminal polyhistidine and DsRed monomer fusion (pET32a); chain copies: 2; label: CyDye5-dUTP incorporated in the synthesized complementary strand; 3' TTTTT single-stranded linker to array surface; dsDNA, one strand shown. The essentials: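 In PBS with 2% BSA, salmon testes DNA and 50 µM zinc acetate, 200 nM protein was incubated on a custom Agilent array at 25 °C for 1 h and then washed off. The array had been made double-stranded by primer extension with Cy5-dUTP and blocked with 2% BSA. The proteins were transcription factors fused N-terminally to polyhistidine and DsRed, expressed in E. coli BL21-CodonPlus and purified on Ni–NTA. The binding signal is per-feature fluorescence intensity (arbitrary units) from an Axon 4000B scanner.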
Regarding “GATCCAATACGAGACCGACACGTCGTCAGCGACCAAGTAACGGAGTCACCTAGTGCAG”, the binding signal was 4420 fluorescence intensity (a.u.). As for “CGTAACGCGATCGAGAACCGACTCAGCCGAGACTCATCGTCGGAGTCACCTAGTGCAG”, the binding signal is 3710 fluorescence intensity (a.u.).

Regarding “AGCGTGCATCATGGATGATAATGCGGTGGCATGAGACCTGCGGAGTCACCTAGTGCAG”, the binding signal is 18300 fluorescence intensity (a.u.). The same measure for “AAAATACCCTAACCTAACAAGGGCGATATGCAGCTGACATCGGAGTCACCTAGTGCAG”: 38600 fluorescence intensity (a.u.); for “TCATGATGGTTTTGAAATTATTCTGACACGAAAGTTTGTGCGGAGTCACCTAGTGCAG”: 3760 fluorescence intensity (a.u.).

For the sequence “CGCGCTCGCCCTCCGTTGCGCCACCCGCATCCTGGCTCGCCGGAGTCACCTAGTGCAG”, the binding signal was 3510 fluorescence intensity (a.u.). Regarding “CTAAGCATGATGCTGCTATCCATCTCCCGTTGAAGGTGAGCGGAGTCACCTAGTGCAG”, the binding signal is 3300 fluorescence intensity (a.u.). For “GCGGCGGCGGATGGACGGGGACTGATGCAGCTGTCGTCAGCGGAGTCACCTAGTGCAG”, the binding signal is 3160 fluorescence intensity (a.u.).

As to “CTATGCCACTGACGTCACCTTTTCTATCCATCCTCTCCATCGGAGTCACCTAGTGCAG”, the binding signal was 19000 fluorescence intensity (a.u.). With “ATCATATATATTCAGTTATCATCTAAATGACATTTGGGACCGGAGTCACCTAGTGCAG”, the binding signal is 3500 fluorescence intensity (a.u.). Regarding “GTGTTAGAAACATCGTTCATATCATACACGTACACGTGGACGGAGTCACCTAGTGCAG”, the binding signal was 6780 fluorescence intensity (a.u.).

On to “TCCTCGCGATGGCGGCTCGAGCCACGCACCGTGACACGCGCGGAGTCACCTAGTGCAG”, for which the binding signal was 3410 fluorescence intensity (a.u.). As for “CTGGCATCTTGGACGTGGGCACGTGCACGTAGGACCAGAACGGAGTCACCTAGTGCAG”, the figure is 4350 fluorescence intensity (a.u.); as for “GCAAATTCATGTCATCTTCGATGAAACGCCAACGTCAAAGCGGAGTCACCTAGTGCAG”, 3360 fluorescence intensity (a.u.). As for “CCGGCCCACCAAACGTAGGCCACCTATATCACATTGGACCCGGAGTCACCTAGTGCAG”, the binding signal was 3580 fluorescence intensity (a.u.). As to “TCCCCTCGCATCCATAAAAGCAGCCCCGAGCCGCGCGTGGCGGAGTCACCTAGTGCAG”, the binding signal was 3230 fluorescence intensity (a.u.). The same measure for “GTCACTGAGATAGGTGTGGCAAATAGTTAATTGATAAATCCGGAGTCACCTAGTGCAG”: 28400 fluorescence intensity (a.u.). The same measure for “TGACCAATCGTACGTGGGCCGATATACCCATGGACCATGGCGGAGTCACCTAGTGCAG”: 3240 fluorescence intensity (a.u.); for “CGCGACTACGACAGCCGCACGCCGCTCCACGTCGCTGCGCCGGAGTCACCTAGTGCAG”: 4400 fluorescence intensity (a.u.); for “ATTTCTGACACGGACCAGCTATTGACCTACCTCACTGACACGGAGTCACCTAGTGCAG”: 4050 fluorescence intensity (a.u.).

In the case of “CCCCGTGGTCCTGCTGCCTGCCACGTCGCCGCCGAACAAGCGGAGTCACCTAGTGCAG”, the binding signal was 8270 fluorescence intensity (a.u.). The same measure for “ATGGCCTCCGTCAGAGCACTGATGTGTTACGTCGTATGCTCGGAGTCACCTAGTGCAG”: 3680 fluorescence intensity (a.u.); for “TCGCCATTAATTACTATTGCGATCTTGAGCCTGCGTGGCACGGAGTCACCTAGTGCAG”: 6040 fluorescence intensity (a.u.). As for “GCAGCTGAAGTGGACCTGTCAGCAAGTAAAGCCAAGAGGCCGGAGTCACCTAGTGCAG”, the binding signal was 3470 fluorescence intensity (a.u.). As for “AAAATGGCGCGTGCCACGGCTCTCTCTCTCTCTCTCTCTCCGGAGTCACCTAGTGCAG”, the figure is 3490 fluorescence intensity (a.u.); as for “TGTGCTGCTAATTAATTGCGTACACGCATGCATACACACACGGAGTCACCTAGTGCAG”, 4860 fluorescence intensity (a.u.). The same measure for “GTGTGTGCACACACGCCAGCAGCTCTGACCAGCTCGAGCTCGGAGTCACCTAGTGCAG”: 5560 fluorescence intensity (a.u.). Turning to “CCCTCGTCCATCGCGTGCCACGTGGCGTGGAAGGCCGGAACGGAGTCACCTAGTGCAG”, the binding signal is 18000 fluorescence intensity (a.u.). As for “TATAAACCAAAGAGTCATACTTTATTAGCCTATGAACCACCGGAGTCACCTAGTGCAG”, the figure is 3530 fluorescence intensity (a.u.); as for “ATCAAGACCAGGCACGCCAACAAGGATGTAGTTGGGTATGCGGAGTCACCTAGTGCAG”, 3150 fluorescence intensity (a.u.); as for “ATCTACCAACCAAGTATATATCATGTCATCACAACACGGTCGGAGTCACCTAGTGCAG”, 3160 fluorescence intensity (a.u.). As for “TACTTATAATTAGTGTTAAACATCCGATGTGACGGGTACTCGGAGTCACCTAGTGCAG”, the figure is 7570 fluorescence intensity (a.u.); as for “GTACGAACCGAGTGTGAGAGGGAGCACACGTCATCGCCGCCGGAGTCACCTAGTGCAG”, 22600 fluorescence intensity (a.u.). In the case of “GCGTGCATGGATGGAGCGATGTCGCTGACGCCCGCTCGGCCGGAGTCACCTAGTGCAG”, the binding signal is 4390 fluorescence intensity (a.u.). In the case of “TGGATCTATTGTATAGGTCAATAGGTGGCATCCACGTGTACGGAGTCACCTAGTGCAG”, the binding signal is 13100 fluorescence intensity (a.u.). On to “TTCCAACACTAGGATGGTATATGAACCACCAGGATACAAACGGAGTCACCTAGTGCAG”, for which the binding signal was 41800 fluorescence intensity (a.u.).

For “TCGATCAGTGGAAGGATATGAGTCATACCGCAAACAAAATCGGAGTCACCTAGTGCAG”, the binding signal is 7490 fluorescence intensity (a.u.). As for “ATGCAGGCCACCTCACGCCACACGCTGTATCGCGCCCATACGGAGTCACCTAGTGCAG”, the figure is 5790 fluorescence intensity (a.u.).

In the case of “GTTTCTATCCCATCGAATGTTTGGACACTAATTATAAATACGGAGTCACCTAGTGCAG”, the binding signal was 25600 fluorescence intensity (a.u.). Take “CACGAGACAAAACACAAAGCAGGACACAGTCACACAGGCTCGGAGTCACCTAGTGCAG”: the binding signal was 3940 fluorescence intensity (a.u.). Regarding “AACCGAGAAGGACACGACAACGTGGACGAGCCCAACTCATCGGAGTCACCTAGTGCAG”, the binding signal was 21900 fluorescence intensity (a.u.). Take “CATGCTTGATGACTTGATCAATTGATCTGCCGATGGAAGTCGGAGTCACCTAGTGCAG”: the binding signal is 3640 fluorescence intensity (a.u.).
